Results are given in words; binding and its absence hold for the method and conditions named. Some results given as binding are weak or reduced against the parent protein; the word gives no strength. Sequences can lack the tags named with a protein.
Assays:
[1] = target: T1, full length human LGR5-FLAG-HA on Freestyle 293F or CHO-K1 cells (human) (UniProt O75473); test: competition FACS on CHO-K1 cells over-expressing human LGR5; competitor PG7711p02 (OMP88R20 copy) fixed at 50 ng/ml, detected with anti-human IgG PE; MFI normalised to no R-spondin1
T1 sequence: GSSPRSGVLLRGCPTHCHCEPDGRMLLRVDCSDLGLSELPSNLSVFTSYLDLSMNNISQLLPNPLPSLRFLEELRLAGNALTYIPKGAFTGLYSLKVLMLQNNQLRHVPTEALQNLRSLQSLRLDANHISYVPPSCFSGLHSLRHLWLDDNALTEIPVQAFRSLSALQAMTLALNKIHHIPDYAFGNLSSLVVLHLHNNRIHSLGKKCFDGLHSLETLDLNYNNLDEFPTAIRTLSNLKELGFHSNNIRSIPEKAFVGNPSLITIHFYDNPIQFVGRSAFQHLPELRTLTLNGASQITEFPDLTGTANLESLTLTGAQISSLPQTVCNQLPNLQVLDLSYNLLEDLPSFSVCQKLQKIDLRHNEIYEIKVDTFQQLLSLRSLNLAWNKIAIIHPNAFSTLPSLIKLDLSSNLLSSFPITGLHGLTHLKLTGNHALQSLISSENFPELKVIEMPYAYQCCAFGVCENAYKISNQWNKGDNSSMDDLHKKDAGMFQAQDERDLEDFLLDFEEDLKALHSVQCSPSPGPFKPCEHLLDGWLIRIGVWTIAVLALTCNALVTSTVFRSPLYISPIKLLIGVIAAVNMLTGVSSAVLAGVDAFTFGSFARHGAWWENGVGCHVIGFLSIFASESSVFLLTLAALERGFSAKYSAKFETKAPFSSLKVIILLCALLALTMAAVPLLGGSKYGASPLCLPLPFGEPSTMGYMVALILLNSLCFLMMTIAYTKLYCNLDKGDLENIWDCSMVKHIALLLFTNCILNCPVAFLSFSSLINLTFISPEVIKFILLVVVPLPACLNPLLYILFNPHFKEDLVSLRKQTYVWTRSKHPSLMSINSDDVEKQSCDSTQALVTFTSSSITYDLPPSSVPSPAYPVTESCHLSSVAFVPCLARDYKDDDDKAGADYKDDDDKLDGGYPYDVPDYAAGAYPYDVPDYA

[2] = target: T1, full length human LGR5-FLAG-HA on Freestyle 293F or CHO-K1 cells (human); test: competition FACS on CHO-K1 cells over-expressing human LGR5; PG7711 fixed at 50 ng/ml, bispecifics at 100 ng/ml, detected with PE-labelled anti-human IgG; MFI normalised to no R-spondin1 [left panel (RSPO-1 competition]

B1: R-spondin1 (ligand, UniProt Q2MKA7 21-263, looked up)
chain: SRGIKGKRQRRISAEGSQACAKGCELCSEVNGCLKCSPKLFILLERNDIRQVGVCLPSCPPGYFDARNPDMNKCIKCKIEHCEACFSHNFCTKCKEGLYLHKGRCYPACPEGSSAANGTMECSSPAQCEMSEWSPWGPCSKKQQLCGFRRGSEERTRRVLHAPVGDHAACSDTKETRRCTVRRVPCPEGQKRRKGGQGRRENANRNLARKESKEAGAGSRRRKGQQQQQQQGTVGPLTSAGPA
notes: also called RSPO1; R-spondin1 (R&D Systems, cat. nr. 4645-RF/CF)
binding [1]: binds
binding [2]: binds

From patent US20240343824A1 (MERUS N V, published 2024)
